PubChem BioAssay AID1224828, NIAID – 2016

- Aim: 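Find genes required for NF-kappaB p65 moving into the nucleus after LPS in mouse macrophages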 (primary screen)
- Cells: mouse RAW264.7 G9 macrophage reporter cells (GFP-p65, Tnf promoter-mCherry)
- Reagents: siRNA pool against mouse genes, 100 nM
- Duration: 2 days siRNA transfection, then 40 min LPS before fixation
- Conditions: LPS (Salmonella minnesota R595) at 10 ng/ml
- Measured: 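Microscopy ratio of nuclear to perinuclear-ring GFP-p65 signal, scaled to the plate median; gene score is the average of two replicate robust z-scores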
- Scale: p65 translocation robust z-score: higher = more nuclear NF-kappaB p65 after LPS than the plate median; nuclear/cytoplasmic p65 ratio: higher = more nuclear NF-kappaB p65
- Call rule: 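Active if robust z is above 3.3 (negative regulators) or below -1.56, the Tlr4 control median (positive regulators); activity score 50 or more; control wells not called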
- Meaning of the calls: active = hit (p65 shift raised or lowered); inactive = no clear change
In all, the deposit lists about 17,000 reagents; below is a part drawn at random. Of all reagents, 762 (4.5%) were called active. 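Active calls include both raised and lowered p65 entry, mostly lowered; wells with fewer than 50 cells lack a z-score.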 Raw values vary from plate to plate and are shown uncorrected.

G6pc3 (glucose 6 phosphatase, catalytic, 3) [SID315473524]
- p65 translocation robust z-score: 0.6
- nuclear/cytoplasmic p65 ratio, rep 1: 1.47
- nuclear/cytoplasmic p65 ratio, rep 2: 1.49
- low cell count flag: enough cells to score
- outcome: inactive

Ndufa9 (NADH:ubiquinone oxidoreductase subunit A9) [SID315472218]
- p65 translocation robust z-score: -0.75
- nuclear/cytoplasmic p65 ratio, rep 1: 1.73
- nuclear/cytoplasmic p65 ratio, rep 2: 1.42
- low cell count flag: enough cells to score
- outcome: inactive

Paip2b (poly(A) binding protein interacting protein 2B) [SID315478962]
- p65 translocation robust z-score: 0.25
- nuclear/cytoplasmic p65 ratio, rep 1: 1.62
- nuclear/cytoplasmic p65 ratio, rep 2: 1.88
- low cell count flag: enough cells to score
- outcome: inactive

Hoxa7 (homeobox A7) [SID315467256]
- p65 translocation robust z-score: -0.74
- nuclear/cytoplasmic p65 ratio, rep 1: 1.25
- nuclear/cytoplasmic p65 ratio, rep 2: 1.36
- low cell count flag: enough cells to score
- outcome: inactive

Adam33 (a disintegrin and metallopeptidase domain 33) [SID315476928]
- p65 translocation robust z-score: -0.51
- nuclear/cytoplasmic p65 ratio, rep 1: 1.25
- nuclear/cytoplasmic p65 ratio, rep 2: 1.63
- low cell count flag: enough cells to score
- outcome: inactive

Sem1 (SEM1, 26S proteasome complex subunit) [SID315469225]
- p65 translocation robust z-score: -0.84
- nuclear/cytoplasmic p65 ratio, rep 1: 1.43
- nuclear/cytoplasmic p65 ratio, rep 2: 1.43
- low cell count flag: enough cells to score
- outcome: inactive

Ccm2l (cerebral cavernous malformation 2-like) [SID315478658]
- p65 translocation robust z-score: -0.41
- nuclear/cytoplasmic p65 ratio, rep 1: 1.59
- nuclear/cytoplasmic p65 ratio, rep 2: 1.69
- low cell count flag: enough cells to score
- outcome: inactive

Pop7 [SID315474842]
- p65 translocation robust z-score: -0.63
- nuclear/cytoplasmic p65 ratio, rep 1: 1.47
- nuclear/cytoplasmic p65 ratio, rep 2: 1.27
- low cell count flag: enough cells to score
- outcome: inactive

Sfrp4 (secreted frizzled-related protein 4) [SID315469196]
- p65 translocation robust z-score: -0.77
- nuclear/cytoplasmic p65 ratio, rep 1: 1.35
- nuclear/cytoplasmic p65 ratio, rep 2: 1.53
- low cell count flag: enough cells to score
- outcome: inactive

Rps9 (ribosomal protein S9) [SID315475391]
- p65 translocation robust z-score: 0.22
- nuclear/cytoplasmic p65 ratio, rep 1: 1.76
- nuclear/cytoplasmic p65 ratio, rep 2: 1.53
- low cell count flag: enough cells to score
- outcome: inactive

E030011O05Rik (RIKEN cDNA E030011O05 gene) [SID315481182]
- nuclear/cytoplasmic p65 ratio, rep 1: 1.32
- nuclear/cytoplasmic p65 ratio, rep 2: 1.37
- low cell count flag: fewer than 50 cells per well; well left out of scoring
- outcome: inactive

Gabpa (GA repeat binding protein, alpha) [SID315466792]
- p65 translocation robust z-score: 0.16
- nuclear/cytoplasmic p65 ratio, rep 1: 1.41
- nuclear/cytoplasmic p65 ratio, rep 2: 1.44
- low cell count flag: enough cells to score
- outcome: inactive

Usp29 (ubiquitin specific peptidase 29) [SID315471819]
- p65 translocation robust z-score: 0.95
- nuclear/cytoplasmic p65 ratio, rep 1: 2.09
- nuclear/cytoplasmic p65 ratio, rep 2: 1.33
- low cell count flag: enough cells to score
- outcome: inactive

Capn1 (calpain 1) [SID315465744]
- p65 translocation robust z-score: -0.32
- nuclear/cytoplasmic p65 ratio, rep 1: 1.52
- nuclear/cytoplasmic p65 ratio, rep 2: 1.61
- low cell count flag: enough cells to score
- outcome: inactive

Bcar3 (breast cancer anti-estrogen resistance 3) [SID315470704]
- p65 translocation robust z-score: -0.8
- nuclear/cytoplasmic p65 ratio, rep 1: 1.48
- nuclear/cytoplasmic p65 ratio, rep 2: 1.51
- low cell count flag: enough cells to score
- outcome: inactive

Atg5 (autophagy related 5) [SID315465454]
- p65 translocation robust z-score: -0.09
- nuclear/cytoplasmic p65 ratio, rep 1: 1.65
- nuclear/cytoplasmic p65 ratio, rep 2: 1.56
- low cell count flag: enough cells to score
- outcome: inactive

Aatf (apoptosis antagonizing transcription factor) [SID315471456]
- p65 translocation robust z-score: -0.19
- nuclear/cytoplasmic p65 ratio, rep 1: 1.49
- nuclear/cytoplasmic p65 ratio, rep 2: 1.67
- low cell count flag: enough cells to score
- outcome: inactive

Prxl2b (peroxiredoxin like 2B) [SID315472461]
- nuclear/cytoplasmic p65 ratio, rep 1: 1.31
- nuclear/cytoplasmic p65 ratio, rep 2: 1.61
- low cell count flag: fewer than 50 cells per well; well left out of scoring
- outcome: inactive

Dennd6b (DENN domain containing 6B) [SID315473804]
- nuclear/cytoplasmic p65 ratio, rep 1: 1.55
- nuclear/cytoplasmic p65 ratio, rep 2: 1.22
- low cell count flag: fewer than 50 cells per well; well left out of scoring
- outcome: inactive

Vmn1r239-ps (vomeronasal 1 receptor 239, pseudogene) [SID315476994]
- p65 translocation robust z-score: 0.85
- nuclear/cytoplasmic p65 ratio, rep 1: 1.52
- nuclear/cytoplasmic p65 ratio, rep 2: 1.31
- low cell count flag: enough cells to score
- outcome: inactive

Trmt11 (tRNA methyltransferase 11) [SID315474762]
- p65 translocation robust z-score: -0.74
- nuclear/cytoplasmic p65 ratio, rep 1: 1.3
- nuclear/cytoplasmic p65 ratio, rep 2: 1.37
- low cell count flag: enough cells to score
- outcome: inactive

Bhlhb9 (basic helix-loop-helix domain containing, class B9) [SID315473997]
- p65 translocation robust z-score: 1.32
- nuclear/cytoplasmic p65 ratio, rep 1: 1.56
- nuclear/cytoplasmic p65 ratio, rep 2: 1.65
- low cell count flag: enough cells to score
- outcome: inactive

Prl7d1 (prolactin family 7, subfamily d, member 1) [SID315468587]
- p65 translocation robust z-score: -0.78
- nuclear/cytoplasmic p65 ratio, rep 1: 1.25
- nuclear/cytoplasmic p65 ratio, rep 2: 1.15
- low cell count flag: enough cells to score
- outcome: inactive

Art5 (ADP-ribosyltransferase 5) [SID315465517]
- p65 translocation robust z-score: 1.08
- nuclear/cytoplasmic p65 ratio, rep 1: 1.58
- nuclear/cytoplasmic p65 ratio, rep 2: 1.74
- low cell count flag: enough cells to score
- outcome: inactive

Or8k32 (olfactory receptor family 8 subfamily K member 32) [SID315480086]
- p65 translocation robust z-score: 0.33
- nuclear/cytoplasmic p65 ratio, rep 1: 1.71
- nuclear/cytoplasmic p65 ratio, rep 2: 1.63
- low cell count flag: enough cells to score
- outcome: inactive

Foxd1 (forkhead box D1) [SID315467196]
- p65 translocation robust z-score: -0.3
- nuclear/cytoplasmic p65 ratio, rep 1: 1.32
- nuclear/cytoplasmic p65 ratio, rep 2: 1.4
- low cell count flag: enough cells to score
- outcome: inactive

Enpep (glutamyl aminopeptidase) [SID315466509]
- p65 translocation robust z-score: 0.54
- nuclear/cytoplasmic p65 ratio, rep 1: 1.51
- nuclear/cytoplasmic p65 ratio, rep 2: 1.46
- low cell count flag: enough cells to score
- outcome: inactive

Part of the list above, reformatted:
target,PubChem SID,p65 translocation robust z-score,"nuclear/cytoplasmic p65 ratio, rep 1","nuclear/cytoplasmic p65 ratio, rep 2",low cell count flag,outcome
Atg5 (autophagy related 5),SID315465454,-0.09,1.65,1.56,enough cells to score,inactive
Aatf (apoptosis antagonizing transcription factor),SID315471456,-0.19,1.49,1.67,enough cells to score,inactive
Prxl2b (peroxiredoxin like 2B),SID315472461,,1.31,1.61,fewer than 50 cells per well; well left out of scoring,inactive
Dennd6b (DENN domain containing 6B),SID315473804,,1.55,1.22,fewer than 50 cells per well; well left out of scoring,inactive
